We go through 14 targets from the supplement of paper PMC10849652.

Amino acid sequences for entries named in this document (tags omitted). A change or cut given only in a name is not applied to a line headed by its entry.
UniProt Q15691: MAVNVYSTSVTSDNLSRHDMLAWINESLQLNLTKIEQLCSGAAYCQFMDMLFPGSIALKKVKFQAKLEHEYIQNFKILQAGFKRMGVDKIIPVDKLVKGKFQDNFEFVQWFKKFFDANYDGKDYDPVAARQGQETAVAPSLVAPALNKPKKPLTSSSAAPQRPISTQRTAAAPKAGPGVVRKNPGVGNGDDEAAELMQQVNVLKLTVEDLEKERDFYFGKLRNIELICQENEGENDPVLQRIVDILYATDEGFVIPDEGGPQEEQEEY
UniProt Q9UNF1: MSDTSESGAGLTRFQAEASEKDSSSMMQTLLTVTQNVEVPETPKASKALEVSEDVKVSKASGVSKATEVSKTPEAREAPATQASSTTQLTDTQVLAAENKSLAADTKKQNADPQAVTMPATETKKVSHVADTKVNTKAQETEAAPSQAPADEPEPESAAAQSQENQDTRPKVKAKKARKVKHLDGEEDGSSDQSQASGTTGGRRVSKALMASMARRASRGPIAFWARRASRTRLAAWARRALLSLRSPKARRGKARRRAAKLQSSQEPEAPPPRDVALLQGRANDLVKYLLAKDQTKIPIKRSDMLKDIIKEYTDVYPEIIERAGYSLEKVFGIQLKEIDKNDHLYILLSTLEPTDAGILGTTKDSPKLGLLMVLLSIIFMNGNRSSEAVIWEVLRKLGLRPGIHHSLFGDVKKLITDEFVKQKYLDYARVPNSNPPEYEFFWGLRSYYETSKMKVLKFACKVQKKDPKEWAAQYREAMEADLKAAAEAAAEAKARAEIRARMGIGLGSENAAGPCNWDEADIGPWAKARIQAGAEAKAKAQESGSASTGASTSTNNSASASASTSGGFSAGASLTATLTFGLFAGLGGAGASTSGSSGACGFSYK
UniProt P45983: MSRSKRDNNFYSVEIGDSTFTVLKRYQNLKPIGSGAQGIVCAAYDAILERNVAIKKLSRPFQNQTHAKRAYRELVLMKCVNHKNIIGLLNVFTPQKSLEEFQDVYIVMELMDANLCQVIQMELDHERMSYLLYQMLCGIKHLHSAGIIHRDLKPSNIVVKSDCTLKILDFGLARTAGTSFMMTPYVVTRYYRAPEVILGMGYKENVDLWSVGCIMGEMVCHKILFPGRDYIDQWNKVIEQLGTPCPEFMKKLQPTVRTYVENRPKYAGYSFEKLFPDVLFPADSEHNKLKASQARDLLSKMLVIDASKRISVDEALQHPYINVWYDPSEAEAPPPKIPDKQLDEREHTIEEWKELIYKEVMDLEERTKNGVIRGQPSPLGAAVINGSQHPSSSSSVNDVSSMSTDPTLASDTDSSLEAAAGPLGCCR
UniProt Q9Y4Z0: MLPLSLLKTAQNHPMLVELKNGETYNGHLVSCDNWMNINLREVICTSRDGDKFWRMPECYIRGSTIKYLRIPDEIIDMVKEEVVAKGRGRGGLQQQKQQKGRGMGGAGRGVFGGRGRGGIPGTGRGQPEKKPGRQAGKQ
UniProt Q8IW41: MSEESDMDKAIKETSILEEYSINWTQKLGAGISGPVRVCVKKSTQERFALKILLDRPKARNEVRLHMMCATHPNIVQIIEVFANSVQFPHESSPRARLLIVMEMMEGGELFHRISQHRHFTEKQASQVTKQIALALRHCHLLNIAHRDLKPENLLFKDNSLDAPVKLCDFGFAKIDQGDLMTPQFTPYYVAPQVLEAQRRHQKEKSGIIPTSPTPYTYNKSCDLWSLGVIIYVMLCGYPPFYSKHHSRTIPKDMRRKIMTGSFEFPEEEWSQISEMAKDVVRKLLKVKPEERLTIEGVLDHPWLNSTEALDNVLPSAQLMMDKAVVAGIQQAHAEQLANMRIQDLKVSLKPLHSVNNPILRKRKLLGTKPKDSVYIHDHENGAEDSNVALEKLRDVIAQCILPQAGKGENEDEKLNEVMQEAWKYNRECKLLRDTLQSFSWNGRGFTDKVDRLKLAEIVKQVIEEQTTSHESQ
UniProt P33908: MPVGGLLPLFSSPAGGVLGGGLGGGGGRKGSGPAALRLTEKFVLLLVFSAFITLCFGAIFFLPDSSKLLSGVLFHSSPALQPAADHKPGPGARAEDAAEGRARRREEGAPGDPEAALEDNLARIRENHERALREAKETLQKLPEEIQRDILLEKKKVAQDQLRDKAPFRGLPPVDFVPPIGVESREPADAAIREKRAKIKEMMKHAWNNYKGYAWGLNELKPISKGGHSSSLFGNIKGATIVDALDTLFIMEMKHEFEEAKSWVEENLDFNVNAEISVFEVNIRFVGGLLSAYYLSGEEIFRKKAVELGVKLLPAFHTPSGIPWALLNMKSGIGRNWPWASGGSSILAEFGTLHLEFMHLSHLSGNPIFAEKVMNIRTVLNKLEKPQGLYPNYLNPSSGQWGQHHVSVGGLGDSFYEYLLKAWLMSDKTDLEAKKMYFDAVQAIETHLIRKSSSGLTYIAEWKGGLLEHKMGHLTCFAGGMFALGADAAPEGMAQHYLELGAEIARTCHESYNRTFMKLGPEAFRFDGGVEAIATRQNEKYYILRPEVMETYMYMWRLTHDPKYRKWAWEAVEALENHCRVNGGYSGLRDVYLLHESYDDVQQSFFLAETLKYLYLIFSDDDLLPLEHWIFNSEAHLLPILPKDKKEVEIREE
UniProt P53778: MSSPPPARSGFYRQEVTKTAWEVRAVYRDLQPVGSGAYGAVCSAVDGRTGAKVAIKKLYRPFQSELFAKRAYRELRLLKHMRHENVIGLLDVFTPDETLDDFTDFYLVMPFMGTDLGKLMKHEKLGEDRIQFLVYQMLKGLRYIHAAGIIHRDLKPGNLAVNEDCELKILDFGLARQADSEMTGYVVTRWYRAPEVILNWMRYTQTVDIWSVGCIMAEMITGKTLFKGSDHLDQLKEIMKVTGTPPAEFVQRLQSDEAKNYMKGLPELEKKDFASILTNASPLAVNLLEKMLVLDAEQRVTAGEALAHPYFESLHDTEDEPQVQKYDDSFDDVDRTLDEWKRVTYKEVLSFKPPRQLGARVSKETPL
UniProt Q8WWC4: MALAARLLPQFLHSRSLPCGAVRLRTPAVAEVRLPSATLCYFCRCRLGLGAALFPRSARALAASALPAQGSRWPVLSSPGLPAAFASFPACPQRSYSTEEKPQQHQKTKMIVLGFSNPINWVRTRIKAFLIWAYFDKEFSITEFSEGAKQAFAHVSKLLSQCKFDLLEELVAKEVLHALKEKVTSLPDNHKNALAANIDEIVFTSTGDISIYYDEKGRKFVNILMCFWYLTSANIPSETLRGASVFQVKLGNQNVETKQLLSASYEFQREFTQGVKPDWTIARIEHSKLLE
UniProt Q8ND56: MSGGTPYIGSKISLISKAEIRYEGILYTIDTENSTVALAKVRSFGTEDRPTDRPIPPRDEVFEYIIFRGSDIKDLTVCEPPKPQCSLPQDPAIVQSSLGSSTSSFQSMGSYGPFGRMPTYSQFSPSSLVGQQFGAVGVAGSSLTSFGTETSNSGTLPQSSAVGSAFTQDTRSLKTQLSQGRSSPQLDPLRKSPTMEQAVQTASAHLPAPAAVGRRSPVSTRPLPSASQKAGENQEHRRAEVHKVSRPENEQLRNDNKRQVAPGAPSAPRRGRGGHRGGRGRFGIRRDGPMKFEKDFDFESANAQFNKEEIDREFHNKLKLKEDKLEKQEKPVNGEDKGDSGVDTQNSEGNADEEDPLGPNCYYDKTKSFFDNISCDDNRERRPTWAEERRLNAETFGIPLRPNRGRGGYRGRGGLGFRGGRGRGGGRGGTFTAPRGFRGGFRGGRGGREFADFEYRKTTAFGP
UniProt P46821: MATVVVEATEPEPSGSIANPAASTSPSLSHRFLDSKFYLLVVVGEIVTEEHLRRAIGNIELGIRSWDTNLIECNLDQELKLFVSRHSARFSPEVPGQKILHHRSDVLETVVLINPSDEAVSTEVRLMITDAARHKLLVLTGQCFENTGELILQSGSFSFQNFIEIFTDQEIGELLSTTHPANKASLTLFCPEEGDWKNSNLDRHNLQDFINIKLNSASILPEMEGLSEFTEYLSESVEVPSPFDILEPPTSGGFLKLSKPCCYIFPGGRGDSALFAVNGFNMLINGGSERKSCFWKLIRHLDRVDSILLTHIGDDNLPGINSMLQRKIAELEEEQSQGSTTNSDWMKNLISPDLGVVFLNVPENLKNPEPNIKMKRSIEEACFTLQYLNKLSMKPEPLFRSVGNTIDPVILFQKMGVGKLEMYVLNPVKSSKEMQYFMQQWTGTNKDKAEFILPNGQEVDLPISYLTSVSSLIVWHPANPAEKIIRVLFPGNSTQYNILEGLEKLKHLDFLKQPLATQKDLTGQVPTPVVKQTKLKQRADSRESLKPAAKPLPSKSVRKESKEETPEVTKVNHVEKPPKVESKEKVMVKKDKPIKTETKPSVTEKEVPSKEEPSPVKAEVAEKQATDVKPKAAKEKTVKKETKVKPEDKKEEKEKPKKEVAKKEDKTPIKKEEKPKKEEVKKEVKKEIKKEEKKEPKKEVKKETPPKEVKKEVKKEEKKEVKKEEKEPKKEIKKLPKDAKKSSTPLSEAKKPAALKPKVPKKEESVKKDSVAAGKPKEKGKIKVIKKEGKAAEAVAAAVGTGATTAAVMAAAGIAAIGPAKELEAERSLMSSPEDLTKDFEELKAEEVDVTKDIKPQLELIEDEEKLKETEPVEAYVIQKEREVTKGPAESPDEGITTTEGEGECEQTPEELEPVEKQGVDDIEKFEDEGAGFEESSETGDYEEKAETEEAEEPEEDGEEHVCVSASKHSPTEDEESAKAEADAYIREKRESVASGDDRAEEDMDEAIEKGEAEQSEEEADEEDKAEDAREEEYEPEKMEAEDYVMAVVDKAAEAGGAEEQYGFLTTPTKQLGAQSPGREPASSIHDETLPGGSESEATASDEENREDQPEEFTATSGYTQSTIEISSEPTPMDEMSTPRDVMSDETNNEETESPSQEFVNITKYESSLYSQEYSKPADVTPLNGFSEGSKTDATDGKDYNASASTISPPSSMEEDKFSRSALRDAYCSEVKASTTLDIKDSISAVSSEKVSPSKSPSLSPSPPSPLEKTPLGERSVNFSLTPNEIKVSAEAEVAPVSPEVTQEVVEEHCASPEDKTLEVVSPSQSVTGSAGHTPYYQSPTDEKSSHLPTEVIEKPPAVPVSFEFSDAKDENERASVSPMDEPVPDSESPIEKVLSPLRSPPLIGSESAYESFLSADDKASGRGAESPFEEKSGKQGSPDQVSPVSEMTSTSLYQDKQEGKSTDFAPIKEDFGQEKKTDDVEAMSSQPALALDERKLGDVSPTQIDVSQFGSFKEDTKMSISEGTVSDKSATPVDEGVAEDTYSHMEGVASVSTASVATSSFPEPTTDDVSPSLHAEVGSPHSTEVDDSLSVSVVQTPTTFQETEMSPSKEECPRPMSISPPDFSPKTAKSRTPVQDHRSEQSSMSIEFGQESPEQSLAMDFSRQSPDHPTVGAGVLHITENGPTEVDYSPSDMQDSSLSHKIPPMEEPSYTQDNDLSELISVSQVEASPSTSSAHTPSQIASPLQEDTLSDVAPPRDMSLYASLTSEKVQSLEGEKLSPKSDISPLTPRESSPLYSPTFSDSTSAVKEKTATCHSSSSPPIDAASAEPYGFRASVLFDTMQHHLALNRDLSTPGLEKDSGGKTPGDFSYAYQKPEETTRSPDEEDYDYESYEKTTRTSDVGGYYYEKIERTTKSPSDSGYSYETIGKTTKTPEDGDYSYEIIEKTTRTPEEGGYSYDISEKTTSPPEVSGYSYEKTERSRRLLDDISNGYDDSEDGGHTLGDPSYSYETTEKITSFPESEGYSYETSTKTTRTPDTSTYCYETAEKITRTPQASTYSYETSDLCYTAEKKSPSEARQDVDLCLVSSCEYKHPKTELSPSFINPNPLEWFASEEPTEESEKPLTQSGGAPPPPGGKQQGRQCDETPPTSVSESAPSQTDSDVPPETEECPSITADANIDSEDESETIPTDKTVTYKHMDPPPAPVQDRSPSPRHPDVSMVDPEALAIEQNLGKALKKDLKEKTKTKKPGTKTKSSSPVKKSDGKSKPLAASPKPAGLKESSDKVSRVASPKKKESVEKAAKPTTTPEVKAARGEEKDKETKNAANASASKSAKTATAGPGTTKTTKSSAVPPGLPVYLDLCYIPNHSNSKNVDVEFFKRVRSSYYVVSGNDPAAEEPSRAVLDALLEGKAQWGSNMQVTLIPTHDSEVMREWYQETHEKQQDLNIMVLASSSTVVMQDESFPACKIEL
UniProt Q96A72, whole entry, looked up: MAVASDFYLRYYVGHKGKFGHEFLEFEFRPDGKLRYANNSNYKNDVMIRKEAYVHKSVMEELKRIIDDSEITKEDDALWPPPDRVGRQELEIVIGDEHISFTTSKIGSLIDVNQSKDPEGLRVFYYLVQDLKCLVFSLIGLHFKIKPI
UniProt Q8WV07: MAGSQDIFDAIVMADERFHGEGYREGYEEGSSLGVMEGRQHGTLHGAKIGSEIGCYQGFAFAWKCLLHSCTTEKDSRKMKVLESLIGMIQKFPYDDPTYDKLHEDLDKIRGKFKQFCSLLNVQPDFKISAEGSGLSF

What all share (experiment): log2 fold change, soluble protein after heating vs DMSO (PISA); higher = thermal stabilisation; K562 cells, 10 uM, 30 min; active = over 0.2 and 3.5 SD of the protein, either way, in both replicates (recomputed)
Compound in one test: Cc1ccc(NC(=O)c2ccc(CN3CC[C@H](N(C)C)C3)c(C(F)(F)F)c2)cc1Nc1nccc(-c2cncnc2)n1 [bafetinib]
A digest of the protocol: (§1)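 Aliquots of K562 cells (2×10^6 cells/mL) treated with 10 μM compound for 30 min were heated for 3 min over 48°C-58°C. After pooling and extraction in PBS with 0.5% NP-40 at 4°C, soluble protein from a 21,000xg, 90 min spin was quantified by TMTpro 16plex LC-MS/MS with channel sums equalised. Thermal stability is expressed against control samples, from duplicates, as a log2 fold change.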

Compound in test [1]: Cc1cccc(CC(=O)N2CCc3c2ccc(-c2cn(C)c4ncnc(N)c24)c3F)n1
A digest of the protocol: as §1

Compound in another test: Cc1cn(-c2cc(NC(=O)c3ccc(C)c(Nc4nccc(-c5cccnc5)n4)c3)cc(C(F)(F)F)c2)cn1 [nilotinib]
A digest of the protocol: as §1

Compound in test [2]: Cc1nc(Nc2n[nH]c3c2CN(C(=O)N[C@H](CN(C)C)c2ccccc2)C3(C)C)c2sccc2n1
A digest of the protocol: as §1

Compound in the next test: Cc1nc(Nc2ncc(C(=O)Nc3c(C)cccc3Cl)s2)cc(N2CCN(CCO)CC2)n1 [dasatinib]
In short, it runs like this:
as §1

Compound in test [3]: Cc1ncc(-c2ccnc(Nc3ccc(S(C)(=O)=O)cc3)n2)n1C(C)C
In short, it runs like this: as §1

Compound in test [4]: Cn1cc(-c2ccc3c(c2)CCN3C(=O)Cc2cccc(C(F)(F)F)c2)c2c(N)ncnc21
In short, it runs like this: as §1

Compound in test [5]: Cn1cc(-c2ccc3nnc(C(F)(F)c4ccc5ncccc5c4)n3n2)cn1
A digest of the protocol: as §1

Compound in a further test: Cn1cncc1[C@@](N)(c1ccc(Cl)cc1)c1ccc2c(c1)c(-c1cccc(Cl)c1)cc(=O)n2C [tipifarnib]
In short, it runs like this: as §1

Compound in the next test: FC(F)(F)c1ccc(/C=C/c2nc(COc3ccc(CCCCn4ccnn4)cc3)co2)cc1 [mubritinib]
A digest of the protocol:
as §1

The other results are listed elsewhere or left out.

For MAPRE1 (UniProt Q15691), the log2 fold change with bafetinib is inactive: -0.034; in test [1], inactive: -0.008; with nilotinib, inactive: -0.014; in test [2], inactive: -0.042; with dasatinib, inactive: -0.066; in [3], inactive: -0.008. In addition, the log2 fold change in test [4] is inactive: 0.017; in test [5], inactive: -0.033; with tipifarnib, inactive: -0.046; with mubritinib, inactive: 0.018.

Regarding MAGED2 (UniProt Q9UNF1), the log2 fold change was inactive: -0.005 with bafetinib; inactive: -0.103 in [1]; inactive: -0.075 in the test with nilotinib; inactive: 0.106 in test [2]; inactive: -0.02 with dasatinib; inactive: -0.037 in [3]. The log2 fold change was inactive: -0.033 in test [4], inactive: -0.043 in [5], inactive: 0.032 in the test with tipifarnib and inactive: 0.013 in the test with mubritinib.

For MAPK8 isoform 3 (UniProt P45983), the log2 fold change in the test with bafetinib was inactive: -0.011; in test [1] it was inactive: -0.048; in the test with nilotinib, inactive: 0.022; in [2], active: 0.415; with dasatinib, inactive: -0.318; in test [3], active: 0.495. Also, the log2 fold change was inactive: 0.047 in [4], inactive: -0.058 in test [5], inactive: 0.001 with tipifarnib and inactive: -0.179 with mubritinib.

For LSM4 (UniProt Q9Y4Z0), the log2 fold change with bafetinib is inactive: 0.014; in [1], inactive: 0.031; with nilotinib, inactive: 0.03; in test [2], inactive: 0.004; with dasatinib, inactive: 0.037; in [3], inactive: -0.005. The log2 fold change in test [4] is inactive: 0.009; in test [5] it was inactive: 0.01; with tipifarnib, inactive: 0; with mubritinib, inactive: 0.032.

As for LZIC isoform 2 (UniProt Q8WZA0), the log2 fold change with bafetinib was inactive: -0.066; in [1] it was inactive: -0.069; in the test with nilotinib, inactive: -0.007; in test [2] it was inactive: -0.008; in the test with dasatinib it was inactive: 0.032; in [3], inactive: 0.015. For the same target, the log2 fold change in test [4] was inactive: 0.047; in test [5], inactive: -0.01; with tipifarnib, inactive: 0.028; with mubritinib, inactive: 0.014.

Consider MAPKAPK5 (UniProt Q8IW41), for which the log2 fold change in the test with bafetinib was inactive: 0.123; in test [1], inactive: -0.014; with nilotinib, inactive: 0.057; in [2], inactive: -0.035; with dasatinib, inactive: -0.031; in [3] it was inactive: 0.052. For the same target, the log2 fold change is inactive: -0.065 in test [4], inactive: -0.074 in test [5], inactive: -0.083 in the test with tipifarnib and inactive: 0.075 with mubritinib.

For MAN1A1 (UniProt P33908), the log2 fold change with bafetinib is inactive: -0.047; in test [1], inactive: 0; in the test with nilotinib it was inactive: 0.046; in test [2], inactive: -0.062; in the test with dasatinib it was inactive: 0.028; in test [3], inactive: -0.045. The log2 fold change was inactive: 0.002 in test [4], inactive: 0.092 in [5], inactive: 0.039 with tipifarnib and inactive: 0.012 with mubritinib.

Consider MAPK12 (UniProt P53778), for which the log2 fold change was inactive: -0.037 with bafetinib; inactive: 0.008 in test [1]; inactive: -0.054 in the test with nilotinib; inactive: -0.254 in [2]; inactive: -0.079 with dasatinib; inactive: -0.035 in test [3]. Also, the log2 fold change is active: 0.34 in test [4], inactive: -0.077 in test [5], inactive: -0.007 with tipifarnib and inactive: 0.061 with mubritinib.

MAIP1 (UniProt Q8WWC4): the log2 fold change in the test with bafetinib was inactive: -0.147; in [1], inactive: 0.005; with nilotinib it was inactive: 0.027; in [2], inactive: 0.007; with dasatinib, inactive: -0.021; in [3] it was inactive: -0.004. Besides, the log2 fold change in test [4] was inactive: 0.031; in test [5], inactive: 0.028; with tipifarnib it was inactive: -0.047; with mubritinib it was inactive: -0.006.

Regarding LSM14A isoform 2 (UniProt Q8ND56), the log2 fold change in the test with bafetinib is inactive: -0.086; in [1], inactive: -0.019; with nilotinib it was inactive: -0.077; in test [2], inactive: 0.044; with dasatinib, inactive: -0.025; in test [3], inactive: 0.021. Further, the log2 fold change in test [4] is inactive: -0.026; in test [5], inactive: 0.009; with tipifarnib, inactive: -0.015; with mubritinib, inactive: 0.056.

For MAP4 (UniProt E7EVA0), the log2 fold change in the test with bafetinib is inactive: 0.311; in [1], inactive: -0.028; in the test with nilotinib, inactive: -0.014; in test [2], inactive: 0.015; in the test with dasatinib it was inactive: 0.168; in test [3], inactive: -0.018. In addition, the log2 fold change in [4] was inactive: -0.166; in test [5] it was inactive: -0.036; with tipifarnib, inactive: 0.019; with mubritinib, inactive: 0.055.

As for MAP1B (UniProt P46821), the log2 fold change with bafetinib is inactive: 0.037; in [1] it was inactive: -0.009; in the test with nilotinib it was inactive: 0.025; in test [2], inactive: 0.062; in the test with dasatinib, inactive: 0.079; in [3] it was inactive: -0.021. Also, the log2 fold change in test [4] is inactive: -0.022; in [5], inactive: -0.003; with tipifarnib, inactive: 0.006; in the test with mubritinib, inactive: 0.002.

As to MAGOHB (UniProt Q96A72), the log2 fold change was inactive: -0.015 with bafetinib; inactive: -0.007 in test [1]; inactive: -0.019 with nilotinib; inactive: -0.042 in test [2]; inactive: 0.007 with dasatinib; inactive: 0.138 in test [3]. The log2 fold change in test [4] is inactive: -0.017; in [5], inactive: 0.024; in the test with tipifarnib, inactive: 0; with mubritinib it was inactive: 0.04.

Regarding LTO1 (UniProt Q8WV07), the log2 fold change with bafetinib was inactive: -0.013; in test [1], inactive: -0.004; in the test with nilotinib it was inactive: -0.036; in test [2], inactive: -0.072; with dasatinib, inactive: 0; in test [3], inactive: 0.039. For the same target, the log2 fold change is inactive: -0.025 in [4], inactive: -0.02 in [5], inactive: -0.063 with tipifarnib and inactive: 0.038 in the test with mubritinib.
